Assay results published in publication PMC12759081.
No constants are given. Whether binding was seen depends on the method and setting. Binding seen in cells or lysates may run through a third protein. Some entries that bind do so weakly or less than the wild type.

By UniProt entry, the sequences of proteins in these tests, tags left out.
UniProt Q9UQE7: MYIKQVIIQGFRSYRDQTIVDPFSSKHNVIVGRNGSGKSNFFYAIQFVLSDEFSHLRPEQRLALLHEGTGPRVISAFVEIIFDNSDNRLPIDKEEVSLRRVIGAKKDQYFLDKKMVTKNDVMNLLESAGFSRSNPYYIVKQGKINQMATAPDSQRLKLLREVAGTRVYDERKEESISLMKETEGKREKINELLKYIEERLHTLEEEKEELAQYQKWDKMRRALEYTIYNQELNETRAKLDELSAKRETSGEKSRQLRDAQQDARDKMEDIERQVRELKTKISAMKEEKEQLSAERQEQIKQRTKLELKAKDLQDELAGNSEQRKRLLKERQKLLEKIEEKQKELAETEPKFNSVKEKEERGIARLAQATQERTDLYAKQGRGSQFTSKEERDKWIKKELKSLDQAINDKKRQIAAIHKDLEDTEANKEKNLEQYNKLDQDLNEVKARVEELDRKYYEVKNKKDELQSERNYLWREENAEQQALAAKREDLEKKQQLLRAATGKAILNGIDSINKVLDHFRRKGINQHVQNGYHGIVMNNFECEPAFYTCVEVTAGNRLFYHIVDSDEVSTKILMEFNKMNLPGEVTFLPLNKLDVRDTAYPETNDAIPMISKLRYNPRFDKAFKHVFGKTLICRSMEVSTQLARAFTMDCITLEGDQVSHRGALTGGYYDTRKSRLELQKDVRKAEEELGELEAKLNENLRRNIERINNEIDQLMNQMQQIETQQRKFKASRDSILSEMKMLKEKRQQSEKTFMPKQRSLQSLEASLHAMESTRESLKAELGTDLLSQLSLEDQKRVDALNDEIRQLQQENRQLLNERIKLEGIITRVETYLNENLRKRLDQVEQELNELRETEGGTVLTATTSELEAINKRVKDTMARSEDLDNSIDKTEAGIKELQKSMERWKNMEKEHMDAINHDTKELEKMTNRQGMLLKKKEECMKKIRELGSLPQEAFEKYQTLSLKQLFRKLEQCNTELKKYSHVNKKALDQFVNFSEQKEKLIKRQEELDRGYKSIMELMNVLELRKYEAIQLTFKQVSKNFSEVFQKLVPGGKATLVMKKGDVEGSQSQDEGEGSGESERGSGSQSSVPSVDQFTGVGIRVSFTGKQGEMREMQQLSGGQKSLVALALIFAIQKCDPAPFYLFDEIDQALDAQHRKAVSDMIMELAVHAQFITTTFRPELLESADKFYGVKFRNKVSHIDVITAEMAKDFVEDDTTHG
UniProt Q96FF9: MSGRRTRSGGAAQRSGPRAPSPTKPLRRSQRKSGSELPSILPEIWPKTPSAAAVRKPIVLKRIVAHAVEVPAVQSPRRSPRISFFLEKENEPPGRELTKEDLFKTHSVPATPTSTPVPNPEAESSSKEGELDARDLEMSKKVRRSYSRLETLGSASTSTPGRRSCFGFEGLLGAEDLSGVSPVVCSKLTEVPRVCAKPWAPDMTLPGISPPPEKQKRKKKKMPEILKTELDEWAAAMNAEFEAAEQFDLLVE

Biological target: SMC3 (human (endogenous in HEK293F, HEK293T and HeLa)) (UniProt Q9UQE7)
Assay: co-IP; HEK293T RSMC+/+ and RSMC+/− cells in early S (0 h) or mid-S (5 h) phase; whole-cell lysates precipitated with anti-SMC3 antibody on protein G beads or control IgG, immunoblot

binding: binds
Substance: Sororin, endogenous (from UniProt Q96FF9 1-252)
